The target in the assay is EPHA2 (human (endogenous in AGS and MKN45)) (UniProt P29317). The experiment in a line: flow cytometry on cells; AGS and MKN45 cells (1 × 10^5) in PBS with 1% BSA stained with Ephrin A1-Fc on ice for 30 min, FITC-conjugated secondary antibody; cells transfected with control or EPHA2 siRNAs (Fig. 4b), or with C1GALT1 siRNA / C1GALT1 knockout (Fig. 6f); only the binder purified.

The chains behind the UniProt entries cited, without tags or fusion partners. Residues count along the entry.
UniProt P29317, residues 24-976: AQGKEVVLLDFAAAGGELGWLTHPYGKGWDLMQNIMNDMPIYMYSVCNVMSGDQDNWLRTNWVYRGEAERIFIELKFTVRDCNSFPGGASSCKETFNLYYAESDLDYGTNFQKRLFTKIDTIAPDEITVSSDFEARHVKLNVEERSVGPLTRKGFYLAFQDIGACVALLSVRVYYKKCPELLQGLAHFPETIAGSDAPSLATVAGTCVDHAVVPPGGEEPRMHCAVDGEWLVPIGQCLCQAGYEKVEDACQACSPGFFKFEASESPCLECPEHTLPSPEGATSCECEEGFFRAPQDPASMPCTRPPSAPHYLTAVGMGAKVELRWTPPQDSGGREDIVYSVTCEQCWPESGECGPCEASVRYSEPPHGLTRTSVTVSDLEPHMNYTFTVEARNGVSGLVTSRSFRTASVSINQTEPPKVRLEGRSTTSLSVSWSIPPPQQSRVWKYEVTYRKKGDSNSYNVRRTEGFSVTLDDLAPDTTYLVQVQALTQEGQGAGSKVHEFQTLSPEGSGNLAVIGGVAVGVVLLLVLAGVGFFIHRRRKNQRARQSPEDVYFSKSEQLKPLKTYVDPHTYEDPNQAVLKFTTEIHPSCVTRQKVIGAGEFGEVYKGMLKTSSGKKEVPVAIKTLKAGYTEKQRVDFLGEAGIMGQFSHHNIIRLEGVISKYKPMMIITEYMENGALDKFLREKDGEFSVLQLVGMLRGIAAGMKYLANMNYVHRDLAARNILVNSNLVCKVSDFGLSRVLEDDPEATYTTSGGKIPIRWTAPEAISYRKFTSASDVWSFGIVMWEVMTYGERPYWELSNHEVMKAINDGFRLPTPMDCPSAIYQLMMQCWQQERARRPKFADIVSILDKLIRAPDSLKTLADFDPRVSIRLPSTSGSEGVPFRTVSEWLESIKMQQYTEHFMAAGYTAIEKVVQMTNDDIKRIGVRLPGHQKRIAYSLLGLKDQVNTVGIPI
UniProt P20827, residues 19-182: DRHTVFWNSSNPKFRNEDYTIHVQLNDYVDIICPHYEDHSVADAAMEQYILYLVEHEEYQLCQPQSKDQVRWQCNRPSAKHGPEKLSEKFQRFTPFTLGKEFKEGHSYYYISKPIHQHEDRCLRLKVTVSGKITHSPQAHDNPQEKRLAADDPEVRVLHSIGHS

No constants are given. Whether binding was seen depends on the method and setting. Some binding calls cover weakened binding; strength is not graded here.

As for “soluble Ephrin A1-Fc (from UniProt P20827 19-182) (Fc fusion)”, the binding result is “binds”.

For the origin of these results see article PMC7098884.
